The record followed here is paper doi:10.1101/2023.03.18.533296.

No constants are given. Whether binding was seen depends on the method and setting. Binding seen in cells or lysates may run through a third protein. Some binding calls cover weakened binding; strength is not graded here. Where a sequence is shown, tags or fusion partners need not be part of it.

Test in all cases: co-IP
Assay [1] deals with T1, GFP-VAMP723 (Arabidopsis thaliana) (UniProt Q8VY69).
T1 sequence: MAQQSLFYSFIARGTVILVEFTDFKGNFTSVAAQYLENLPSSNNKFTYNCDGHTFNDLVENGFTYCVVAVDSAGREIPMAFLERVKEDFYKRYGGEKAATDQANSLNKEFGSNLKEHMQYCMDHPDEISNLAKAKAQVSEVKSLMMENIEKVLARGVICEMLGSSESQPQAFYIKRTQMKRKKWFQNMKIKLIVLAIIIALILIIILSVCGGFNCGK

Assay [2] deals with T2, GFP-VAMP721^Y57D (Arabidopsis thaliana) (UniProt Q9ZTW3).
T2 sequence: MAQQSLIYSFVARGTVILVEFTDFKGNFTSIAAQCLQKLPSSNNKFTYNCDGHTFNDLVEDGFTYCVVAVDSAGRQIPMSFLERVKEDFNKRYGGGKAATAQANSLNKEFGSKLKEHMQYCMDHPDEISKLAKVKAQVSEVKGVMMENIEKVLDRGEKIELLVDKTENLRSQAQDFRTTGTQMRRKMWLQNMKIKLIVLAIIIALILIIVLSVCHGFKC

Assay [3] deals with T3, GFP-VAMP721 (VESICLE-ASSOCIATED MEMBRANE PROTEIN 721) (Arabidopsis thaliana) (UniProt Q9ZTW3).
T3 sequence: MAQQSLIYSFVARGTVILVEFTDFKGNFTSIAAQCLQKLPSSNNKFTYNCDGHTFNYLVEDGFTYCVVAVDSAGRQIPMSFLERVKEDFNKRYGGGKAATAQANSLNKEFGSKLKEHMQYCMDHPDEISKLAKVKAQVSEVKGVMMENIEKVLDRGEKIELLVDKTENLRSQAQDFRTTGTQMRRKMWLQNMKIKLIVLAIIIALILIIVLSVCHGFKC

B1: SYP111 (KNOLLE) (protein, UniProt Q42374 1-310)
chain: MNDLMTKSFMSYVDLKKAAMKDMEAGPDFDLEMASTKADKMDENLSSFLEEAEYVKAEMGLISETLARIEQYHEESKGVHKAESVKSLRNKISNEIVSGLRKAKSIKSKLEEMDKANKEIKRLSGTPVYRSRTAVTNGLRKKLKEVMMEFQGLRQKMMSEYKETVERRYFTVTGEHANDEMIEKIITDNAGGEEFLTRAIQEHGKGKVLETVVEIQDRYDAAKEIEKSLLELHQVFLDMAVMVESQGEQMDEIEHHVINASHYVADGANELKTAKSHQRNSRKWMCIGIIVLLLIILIVVIPIITSFSSS
Take B1: the binding result is “no binding” in assay [1], “binds” in assay [2] and “binds” in assay [3].
